Experimental data from the supplement of paper PMC12823440, “Inhibitors supercharge kinase turnover through native proteolytic circuits” (Nature, 2025).
Structures can show the parent of a compound that is named as a salt. Some of the results follow. The calls rarely recur for the same compound in another form.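 In K562 cells expressing nanoluciferase-fused kinases, luminescence was recorded at 4 h intervals between 2 and 18 h, normalized as percent of control with DMSO at 100% and a positive control at 0%. A significant (2 sigma) signal drop marks a time point as decreased. The authors' rule for a hit is not shown and takes in more than the number of time points.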

Sequences of proteins named here, by UniProt entry; tags and fusion partners are left off.
UniProt P49137, whole entry, looked up: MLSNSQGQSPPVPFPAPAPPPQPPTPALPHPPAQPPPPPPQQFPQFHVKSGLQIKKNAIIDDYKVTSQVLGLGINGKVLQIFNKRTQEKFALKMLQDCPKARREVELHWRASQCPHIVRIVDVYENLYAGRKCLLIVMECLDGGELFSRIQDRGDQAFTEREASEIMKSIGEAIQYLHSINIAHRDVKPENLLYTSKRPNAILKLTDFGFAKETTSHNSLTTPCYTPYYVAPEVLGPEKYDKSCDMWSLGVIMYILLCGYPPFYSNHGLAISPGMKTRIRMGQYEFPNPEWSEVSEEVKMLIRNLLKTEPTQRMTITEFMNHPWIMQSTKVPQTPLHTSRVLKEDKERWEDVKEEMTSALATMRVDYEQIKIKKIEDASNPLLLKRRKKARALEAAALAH

Each molecule was assayed against MAPKAPK2 (UniProt P49137) (assay: kinase-Nluc reporter destabilization hit call (1 = scored as downregulated) (binary); higher = compound decreases kinase abundance). Settings: K562; 2-18 h.

kinase-Nluc reporter destabilization hit call, inactive:
CC(C1CC1)n1cnc2c(NCc3cccc(C(F)(F)F)c3)nc(NCCN(C)C)nc21 (stereo not drawn) (10 µM) 0
COc1cc2nc(NC3CC3)nc(NC3CCN(C(C)C)CC3)c2cc1OC (10 µM) 0
Cc1nn(CC(F)(F)F)cc1Nc1ncc(Br)c(NCc2ccc(S(N)(=O)=O)cc2)n1 (10 µM) 0
N#C/C(=C/c1ccc(O)c(O)c1)C(=O)N1CCc2ccccc21 [Tyrphostin AG 528] (10 µM) 0
Cc1nc2c(NCc3cccc(S(C)(=O)=O)c3)nccn2c1-c1ccc(O)c(F)c1 (10 µM) 0
CN(C)c1cc[n+](Cc2ccc(OCCOc3ccc(C[n+]4ccc(N(C)C)cc4)cc3)cc2)cc1 (10 µM) 0
O=C1CCC(N2C(=O)c3cccc(OCCCCCOc4ccc(CC(=O)Nc5cc(C6CCC6)[nH]n5)cc4)c3C2=O)C(=O)N1 (stereo not drawn) [PROTAC CDK9 Degrader-1] (10 µM) 0
CCOc1cc(=O)[nH]cc1-c1ccc(CC(=O)Nc2cc(C(C)(C)C(F)(F)F)on2)c(F)c1 (10 µM) 0
O=C(O)/C=C(\CCc1ccc(Cl)cc1)c1ccccc1 (10 µM) 0
CCc1c(C(=O)NNC(=O)[C@H](O)c2cc(F)cc(F)c2)ccc(O)c1C (10 µM) 0
O=c1cc(N2CCOCC2)oc2c(-c3cccc4c3sc3ccccc34)cccc12 (10 µM) 0
CN1CCN(c2ccc(-n3cc(-c4ccncc4OCC4CCNCC4)cn3)cc2)CC1 [MELK-8a (hydrochloride)] (10 µM) 0
Cc1ccc(C2CC(=O)NC(SCC(=O)Nc3nccs3)=C2C#N)cc1 (stereo not drawn) [Necrostatin-34] (10 µM) 0
CNc1cc2c(Nc3cccc(Br)c3)ncnc2cn1 (10 µM) 0
Cn1cc(-c2nc(N[C@@H]3CCCC[C@@H]3N)c(F)c3c2C(=O)NC3)cn1 [TAK-659 (hydrochloride)] (2 µM) 0
CC(=O)Nc1nc(C)c(-c2cc(C)c3c(c2)CN([C@@H](C)C2CC2)C3=O)s1 (10 µM) 0
CN(C)c1ccc(/C=C2\C(=O)Nc3ccccc32)c2ccccc12 (10 µM) 0
COc1ccc(-c2cc(=O)c3c(O)cc(O)cc3o2)cc1-c1c(O)cc(O)c2c(=O)cc(-c3ccc(O)cc3)oc12 [Bilobetin] (2.5 µM) 0
O=C(NCc1ccn[nH]1)c1cc([C@@H]2CCNC[C@H]2COc2ccc3c(c2)OCO3)ccc1F [GRK2-IN-1 (hydrochloride)] (10 µM) 0
Nc1ccc(C(=O)Nc2cccc(-c3nc(N4CCOCC4)c4oc5ncccc5c4n3)c2)cn1 (10 µM) 0
CCOC(=O)c1c(C)[nH]c(C=C2C(=O)Nc3ccccc32)c1C (10 µM) 0
CCCS(=O)(=O)N[C@H]1C[C@@H](N(C)c2ncnc3[nH]ccc23)C1 [Abrocitinib] (10 µM) 0
O=[N+]([O-])c1ccc(-c2nc(-c3ccc(F)cc3)c(-c3ccncc3)[nH]2)cc1 (10 µM) 0
O=C(O)c1c[nH]c2cc(Cl)c(-c3ccc(C4(O)CCC4)cc3)cc12 (10 µM) 0
CN1CCC(Nc2nc(Nc3ccc(Oc4ccccc4)cc3)c3c(=O)[nH]cc(Br)c3n2)CC1 (2.5 µM) 0
CO[C@]1(C(=O)N[C@@H](C)c2ccc(-n3cc(F)cn3)nc2)CC[C@H](c2nc(C)cc(Nc3cc(C)[nH]n3)n2)CC1 [Pralsetinib] (10 µM) 0
COc1c(Nc2ncc(Cl)c(N[C@H]3[C@@H](C(N)=O)[C@@H]4C=C[C@H]3C4)n2)ccc2c1CC[C@@H](N1CCOCC1)CC2 (10 µM) 0
CN1CCN(Cc2ccc(-c3cn(C4CCC(O)CC4)c4nc(NCCC5CC5)ncc34)cc2)CC1 (stereo not drawn) (2.5 µM) 0
C[C@@H]1COC(Nc2ccc3ncnc(Nc4ccc(OCc5nccs5)c(Cl)c4)c3c2)=N1 [Varlitinib] (10 µM) 0
CC(C)n1cnc2c(Nc3cccc(Cl)c3)nc(N[C@H]3CCCC[C@@H]3N)nc21 (2.5 µM) 0
Cc1n[nH]c2ncc(C(=O)N3CCC[C@H]3c3ccc(Cl)cc3)cc12 (10 µM) 0
COc1ccc2cc1Oc1ccc(cc1)C[C@H]1c3cc(c(OC)cc3CCN1C)Oc1c(O)c(OC)cc3c1[C@H](C2)N(C)CC3 [Fangchinoline] (2.5 µM) 0
CS[C@@]1(C(=O)Nc2ccc3[nH]nc(-c4ccc(OC(C)C)nc4)c3c2)CCN(CC(=O)N2CC=C(c3ccc(-c4ncn(C)n4)cc3)CC2)C1 (2.5 µM) 0
CC/C(=C(\c1ccccc1)c1ccc(OCCNC)cc1)c1ccccc1 [N-Desmethyltamoxifen (hydrochloride)] (2.5 µM) 0
CNC(=O)CN1CCC(Oc2cc3c(Nc4cccc(Cl)c4F)ncnc3cc2OC)CC1 [Sapitinib] (10 µM) 0
O=CN1CCN(c2ccc(C=C3C(=O)Nc4ccccc43)cc2)CC1 (10 µM) 0
CCCCC(=O)OCC(=O)[C@]1(O)Cc2c(O)c3c(c(O)c2[C@@H](O[C@H]2C[C@H](NC(=O)C(F)(F)F)[C@H](O)[C@H](C)O2)C1)C(=O)c1c(OC)cccc1C3=O [Valrubicin] (10 µM) 0
Fc1ccc(Cl)cc1-c1nc(Nc2ccncc2)c2nccnc2n1 (10 µM) 0

A draw from above in order of number of heavy atoms, smallest number first:
kinase-Nluc reporter destabilization hit call, inactive:
CNc1cc2c(Nc3cccc(Br)c3)ncnc2cn1 (10 µM) 0
CCCS(=O)(=O)N[C@H]1C[C@@H](N(C)c2ncnc3[nH]ccc23)C1 [Abrocitinib] (10 µM) 0
CCOC(=O)c1c(C)[nH]c(C=C2C(=O)Nc3ccccc32)c1C (10 µM) 0
CN(C)c1ccc(/C=C2\C(=O)Nc3ccccc32)c2ccccc12 (10 µM) 0
Cn1cc(-c2nc(N[C@@H]3CCCC[C@@H]3N)c(F)c3c2C(=O)NC3)cn1 [TAK-659 (hydrochloride)] (2 µM) 0
CC/C(=C(\c1ccccc1)c1ccc(OCCNC)cc1)c1ccccc1 [N-Desmethyltamoxifen (hydrochloride)] (2.5 µM) 0
C[C@@H]1COC(Nc2ccc3ncnc(Nc4ccc(OCc5nccs5)c(Cl)c4)c3c2)=N1 [Varlitinib] (10 µM) 0
CNC(=O)CN1CCC(Oc2cc3c(Nc4cccc(Cl)c4F)ncnc3cc2OC)CC1 [Sapitinib] (10 µM) 0
CN1CCN(Cc2ccc(-c3cn(C4CCC(O)CC4)c4nc(NCCC5CC5)ncc34)cc2)CC1 (stereo not drawn) (2.5 µM) 0
CO[C@]1(C(=O)N[C@@H](C)c2ccc(-n3cc(F)cn3)nc2)CC[C@H](c2nc(C)cc(Nc3cc(C)[nH]n3)n2)CC1 [Pralsetinib] (10 µM) 0
COc1ccc2cc1Oc1ccc(cc1)C[C@H]1c3cc(c(OC)cc3CCN1C)Oc1c(O)c(OC)cc3c1[C@H](C2)N(C)CC3 [Fangchinoline] (2.5 µM) 0
CCCCC(=O)OCC(=O)[C@]1(O)Cc2c(O)c3c(c(O)c2[C@@H](O[C@H]2C[C@H](NC(=O)C(F)(F)F)[C@H](O)[C@H](C)O2)C1)C(=O)c1c(OC)cccc1C3=O [Valrubicin] (10 µM) 0
